Results from PubChem BioAssay AID1347076 (National Center for Advancing Translational Sciences (NCATS), 2019).
Hit rate of the full screen: of about 400,000 compounds, about 13,000 (3.2%) were called active. Inconclusive means that the source gave no clear call. Such entries were picked first, then a sample of the others. Calls follow the shape of the dose curve; as a rule, active = well fitted cell-killing curve with a large enough effect; inconclusive = small, poorly fitted or top-dose-only effect, or effect the other way; inactive = flat fitted curve, though single readings scatter. A potency beside an inconclusive call is a rough fit, not a confirmed value.

assay: qHTS assay for MDR1-selective chemotherapeutics: Primary screen using the drug-selected MDR subline cells KB-V1; details: KB-V1 MDR cells viability, CellTiter-Glo, 72 h; activity change, negative = cytotoxicity: at 46.1 µM (top of the series); also: nearly all actives have a fitted effect of over 60% in size
Method in brief: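 Potencies derive from concentration-effect curves fitted to normalized luminescence (CellTiter-Glo) of KB-V1 cells treated for 72 h at 37 degrees C in phenol-red-free DMEM containing 10% FBS.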
% is scaled to controls: 0 for no effect and ±100 for the full control effect; potency is read from the fitted curve at half-maximal effect.

SMILES | Potency | activity change, negative = cytotoxicity
CCCCCCCCn1c2c(c(=N)c3ccccc31)CCC2 | inactive | –
Cc1ccccc1C(=O)Nc1ccc(C(=O)N/N=C/c2ccccn2)cc1 | inactive | –
Cc1cccc(OCCNC(=O)c2cccc(Oc3ccc(C(F)(F)F)cc3[N+](=O)[O-])c2)c1 | active: 9.2 µM | –
CCOC(=O)N1CCN(C(=O)CCNS(=O)(=O)c2ccccc2)CC1 | inactive | –
O=S(=O)(c1cccc(F)c1)N1CCN(c2nc(-c3cccs3)nc3ccccc23)CC1 | inactive | –
Cc1cccc(CCN(C(=O)c2snc(C(N)=O)c2N)C(C(=O)NCC2CCCO2)c2ccc(F)cc2)c1 (stereo unspecified) | active: 20.6 µM | –
COc1ccc(NC(=O)C(C)n2nc(-c3cc(C)ccc3C)c3c(c2=O)CCCC3)cc1 (stereo unspecified) | inconclusive: 16.4 µM [cytotoxic, partial curve] | –
CC(C)(C)C(=O)NCCN1C(=O)S/C(=C\c2ccc([N+](=O)[O-])cc2)C1=O | inactive | –
O=[N+]([O-])c1ccc(Nc2nc(N3CCOCC3)nc(N3CCOCC3)n2)cc1 | inactive | –
CCOc1cccc2cc(C(=O)NCc3ccc(F)cc3)c(=N)oc12 | inactive | –
COc1ccc(C(=O)N2CCN(c3ccc(NC(=O)c4cccnc4)cc3)CC2)cc1 | inconclusive: 20.6 µM [cytotoxic, single point] | –
Cc1c(NS(=O)(=O)c2cc(Br)cc3c2N(C(=O)C2CC2)CC3)c(=O)n(-c2ccccc2)n1C | inconclusive: 18.4 µM [rising, partial curve] | –
CC(C)=CC(=O)OCc1csc(CC(=O)Nc2ccccc2C)n1 | inactive | –
COc1ccc(C(O)c2ncc(-c3ccc4ccccc4c3)[nH]2)cc1 (stereo unspecified) | inactive | –
CCOc1cc(C)c(S(=O)(=O)NC2CCCCC2)cc1C | inconclusive: 18.4 µM [cytotoxic, partial curve, poor fit] | –
Nc1nonc1-c1nc2ccccc2n1CC(=O)Nc1ccccc1 | inconclusive: 32.6 µM [cytotoxic, single point] | –
CCN(CC)S(=O)(=O)c1ccc(C)c(NC(=S)Nc2cccc(S(=O)(=O)N3CCCCCC3)c2)c1 | inconclusive: 29.1 µM [cytotoxic, single point] | –
COc1ccc(N(CC(O)CN2C(=O)NC(C)(C)C2=O)S(=O)(=O)c2ccc(C)cc2)cc1 (stereo unspecified) | inconclusive: 29.1 µM [cytotoxic, single point] | –
O=Cc1c(Cl)nc2ccccn2c1=O | – | inconclusive: -23.9%
COc1ccc(CCNC(=O)CSc2n[nH]c(N)n2)cc1 | inconclusive: 29.1 µM [rising, single point] | –
CC1=NN(C(=O)Cc2ccc([N+](=O)[O-])cc2)C(O)(C(F)(F)C(F)(F)F)C1 (stereo unspecified) | inconclusive: 29.1 µM [cytotoxic, single point] | –
Cc1ccc(C(=O)n2c(-c3ccccc3)cnc2SCC(=O)Nc2ccc(C)cc2C)cc1 | inconclusive: 18.4 µM [cytotoxic, single point] | –
O=C(Nc1ccc(F)c(F)c1)c1ccccc1 | inconclusive: 0.0164 µM [rising, full curve, poor fit] | –

SMILES | Potency | activity change, negative = cytotoxicity
OCC[C@@H]1C[C@H](O)[C@@H](O)[C@]2(Cc3ccccc3CCO2)O1 | inactive | –
Cc1nn(-c2ccccc2)cc1/C=N/NC(N)=S | active: 16.4 µM | –
O=C(c1ccc(CS(=O)c2cccc(Cl)c2)o1)N1CCCCCC1 (stereo unspecified) | active: 23.1 µM | –
Cc1ccc(S(=O)(=O)CCC(=O)Nc2cc(C)on2)cc1 | inactive | –
CCC1=C(c2ccc(OC)cc2)CCC(C(=O)O)C1C (stereo unspecified) | inactive | –
NS(=O)(=O)c1ccc(CCNC(=O)Cc2ccccc2[N+](=O)[O-])cc1 | inconclusive: 18.4 µM [rising, partial curve] | –
CNc1nc(Nc2ccc(C)cc2C)c2sccc2n1 | active: 14.6 µM | –
CCC(=O)NC(Nc1sc2c(c1C(=O)OC)CCCC2)(C(F)(F)F)C(F)(F)F | inconclusive: 5.17 µM [cytotoxic, partial curve, poor fit] | –
O=C(CN1CCN(S(=O)(=O)c2ccc(F)cc2)CC1)Nc1ccc2c(c1)OCCO2 | inconclusive: 5.8 µM [cytotoxic, partial curve, poor fit] | –
CC(C)C(=O)Nc1ccc(NC(=O)c2ccc(COc3ccccc3)cc2)cc1 | inconclusive: 14.6 µM [rising, partial curve] | –
COc1ccc(S(=O)(=O)N2CCC[C@H]2C(=O)N2CCC[C@H]2C(=O)NCc2ccncc2)cc1C | inconclusive: 0.164 µM [rising, full curve] | –
COC(=O)c1cc(N=CC2=C(O)CC(C)(C)CC2=O)cc(C(=O)OC)c1 | inconclusive: 29.1 µM [rising, single point] | –
O=C(NCCC(=O)N1CCCC(C(F)(F)F)C1)c1ccc(Br)cc1 (stereo unspecified) | inconclusive: 8.2 µM [cytotoxic, partial curve] | –
COc1cc(NC(=O)c2ccc(S(=O)(=O)N(C)C)cc2)cc(OC)c1OC | inactive | –
CCc1nc(Nc2ccc3c(c2)OCCO3)c2oc3ccccc3c2n1 | inconclusive: 32.6 µM [cytotoxic, partial curve, poor fit] | –
CC1=NN(c2ccccc2)C(=O)/C1=C/C=C/c1ccccc1 | inconclusive: 20.6 µM [cytotoxic, single point] | –
Cc1ccc(Cn2nnc3c(=O)n(Cc4cccc(C)c4)cnc32)cc1 | inconclusive: 29.1 µM [cytotoxic, single point] | –
CCCCN(CC)Cc1ccc(CNC(=S)Nc2ccc(C)cc2Cl)o1 | inactive | –
O=C(NCCc1ccccc1)c1ccc2c(c1)S(=O)(=O)N=C1CCCCCN12 | – | inconclusive: 30%
COCCNCCCOc1ccc(Br)cc1Cl | inconclusive: 11.6 µM [cytotoxic, partial curve, poor fit] | –
Cc1nnc(SCC(=O)NC2CCS(=O)(=O)C2)n1Cc1ccccc1 (stereo unspecified) | inconclusive: 32.6 µM [cytotoxic, single point] | –
Nc1cc2c(cc1[N+](=O)[O-])-c1ccccc1C2=NO | inactive | –
O=C(Nc1ccc(F)cc1)c1ccc(S(=O)(=O)N2CCCC2)cc1 | inconclusive: 16.4 µM [cytotoxic, single point] | –

Single records, as listed above.
CCC1=C(c2ccc(OC)cc2)CCC(C(=O)O)C1C (stereo unspecified) is entered as Potency: inactive
CCc1nc(Nc2ccc3c(c2)OCCO3)c2oc3ccccc3c2n1 is entered as Potency: inconclusive: 32.6 µM [cytotoxic, partial curve, poor fit]
COc1cc(NC(=O)c2ccc(S(=O)(=O)N(C)C)cc2)cc(OC)c1OC is entered as Potency: inactive
CC1=NN(c2ccccc2)C(=O)/C1=C/C=C/c1ccccc1 is entered as Potency: inconclusive: 20.6 µM [cytotoxic, single point]
